From publication PMC4058079
Results are given in words; binding and its absence hold for the method and conditions named. Binding seen in cells or lysates may run through a third protein. Some entries that bind do so weakly or less than the wild type.

Protein sequences, listed by entry. Tags and fused reporters are not part of them. Residues count along the entry.
UniProt P29317, residues 24-976: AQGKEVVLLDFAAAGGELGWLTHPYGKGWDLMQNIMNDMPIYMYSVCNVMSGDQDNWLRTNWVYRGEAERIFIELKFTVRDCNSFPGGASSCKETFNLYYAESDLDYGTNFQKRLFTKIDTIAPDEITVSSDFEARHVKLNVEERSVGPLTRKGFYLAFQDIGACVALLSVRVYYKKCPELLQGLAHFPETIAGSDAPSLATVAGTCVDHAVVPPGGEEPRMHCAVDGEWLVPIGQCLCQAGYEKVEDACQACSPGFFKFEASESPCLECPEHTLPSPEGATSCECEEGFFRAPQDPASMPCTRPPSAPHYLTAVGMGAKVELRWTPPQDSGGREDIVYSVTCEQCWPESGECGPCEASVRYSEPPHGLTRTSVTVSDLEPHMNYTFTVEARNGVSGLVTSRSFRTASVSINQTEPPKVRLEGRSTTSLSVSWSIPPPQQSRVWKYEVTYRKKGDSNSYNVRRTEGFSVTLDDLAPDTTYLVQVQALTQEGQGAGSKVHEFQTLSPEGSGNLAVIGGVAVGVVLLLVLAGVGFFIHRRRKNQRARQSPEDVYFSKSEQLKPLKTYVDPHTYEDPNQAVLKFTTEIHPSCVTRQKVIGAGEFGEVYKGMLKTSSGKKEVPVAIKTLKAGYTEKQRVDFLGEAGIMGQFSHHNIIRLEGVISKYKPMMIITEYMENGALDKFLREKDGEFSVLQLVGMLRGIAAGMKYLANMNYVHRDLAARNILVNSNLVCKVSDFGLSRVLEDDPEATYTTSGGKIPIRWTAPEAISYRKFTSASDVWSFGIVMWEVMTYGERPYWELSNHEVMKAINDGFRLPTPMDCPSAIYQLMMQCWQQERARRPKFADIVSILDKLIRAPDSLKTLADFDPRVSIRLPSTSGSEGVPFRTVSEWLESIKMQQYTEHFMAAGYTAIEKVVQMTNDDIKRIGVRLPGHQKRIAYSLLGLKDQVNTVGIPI
UniProt P54764, residues 20-986: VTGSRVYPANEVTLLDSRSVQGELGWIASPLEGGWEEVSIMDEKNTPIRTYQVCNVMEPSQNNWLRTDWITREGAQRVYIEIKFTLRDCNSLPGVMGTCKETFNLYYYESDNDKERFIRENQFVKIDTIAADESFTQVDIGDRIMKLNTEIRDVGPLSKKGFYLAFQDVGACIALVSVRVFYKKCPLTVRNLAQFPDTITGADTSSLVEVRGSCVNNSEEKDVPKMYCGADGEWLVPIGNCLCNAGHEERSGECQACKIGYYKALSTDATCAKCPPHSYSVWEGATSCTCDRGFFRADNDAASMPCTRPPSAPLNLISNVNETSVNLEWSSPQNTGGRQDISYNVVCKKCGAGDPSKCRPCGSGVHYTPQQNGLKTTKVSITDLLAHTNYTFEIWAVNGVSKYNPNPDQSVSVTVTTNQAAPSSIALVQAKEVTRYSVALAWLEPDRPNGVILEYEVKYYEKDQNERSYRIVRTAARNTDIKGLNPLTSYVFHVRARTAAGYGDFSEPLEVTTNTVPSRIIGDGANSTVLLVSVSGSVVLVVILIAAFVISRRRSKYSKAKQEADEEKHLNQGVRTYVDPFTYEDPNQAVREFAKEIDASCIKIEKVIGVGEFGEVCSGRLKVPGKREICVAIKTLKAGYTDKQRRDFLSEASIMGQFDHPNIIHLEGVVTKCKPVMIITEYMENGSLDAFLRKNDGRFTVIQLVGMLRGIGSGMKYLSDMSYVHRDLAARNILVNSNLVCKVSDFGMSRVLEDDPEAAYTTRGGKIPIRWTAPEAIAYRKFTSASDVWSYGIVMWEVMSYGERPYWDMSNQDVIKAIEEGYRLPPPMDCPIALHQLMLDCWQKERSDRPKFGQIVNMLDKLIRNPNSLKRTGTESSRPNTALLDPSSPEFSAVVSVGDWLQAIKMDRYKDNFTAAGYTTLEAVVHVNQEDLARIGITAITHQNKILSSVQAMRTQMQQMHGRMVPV

Molecular target: T1, Vav2 (human (endogenous in PC-3)) (UniProt P52735)
T1 sequence: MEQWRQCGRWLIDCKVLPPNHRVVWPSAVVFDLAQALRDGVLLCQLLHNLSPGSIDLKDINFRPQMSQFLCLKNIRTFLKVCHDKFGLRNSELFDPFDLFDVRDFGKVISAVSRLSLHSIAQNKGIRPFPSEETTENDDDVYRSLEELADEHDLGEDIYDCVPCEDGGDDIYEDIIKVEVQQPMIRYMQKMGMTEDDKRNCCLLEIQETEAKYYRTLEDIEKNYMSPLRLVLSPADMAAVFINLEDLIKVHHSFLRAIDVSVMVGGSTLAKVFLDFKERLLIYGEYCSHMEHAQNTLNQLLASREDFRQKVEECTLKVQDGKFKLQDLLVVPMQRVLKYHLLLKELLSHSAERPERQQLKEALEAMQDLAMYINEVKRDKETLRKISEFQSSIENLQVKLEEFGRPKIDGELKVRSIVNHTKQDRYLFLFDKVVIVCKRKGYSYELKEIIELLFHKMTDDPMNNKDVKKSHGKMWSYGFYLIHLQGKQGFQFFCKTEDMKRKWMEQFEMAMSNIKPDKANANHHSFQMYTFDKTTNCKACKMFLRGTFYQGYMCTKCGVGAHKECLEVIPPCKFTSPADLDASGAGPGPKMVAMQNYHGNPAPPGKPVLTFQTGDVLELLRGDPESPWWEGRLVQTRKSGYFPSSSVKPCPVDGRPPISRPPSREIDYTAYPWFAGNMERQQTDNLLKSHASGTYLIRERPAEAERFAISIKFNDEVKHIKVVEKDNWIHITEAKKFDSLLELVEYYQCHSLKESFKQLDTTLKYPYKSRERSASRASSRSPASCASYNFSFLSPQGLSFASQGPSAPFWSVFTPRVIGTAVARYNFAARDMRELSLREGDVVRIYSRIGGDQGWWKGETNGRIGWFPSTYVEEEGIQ
Assay: co-IP; endogenous Vav2 immunoprecipitated (anti-Vav2, Protein A Sepharose, 4°C overnight) from lysates of PC-3 cells treated with clustered ephrin-A5/Fc or Fc control; lysis buffer 125 mM NaCl, 20 mM Tris pH 7.4, 1% Igepal CA-630, 10% glycerol, with sodium orthovanadate; blotted for EphA2 and EphA4

binding	Substance
binds	EphA2 (from UniProt P29317 24-976) (receptor)
binds	EphA4 (from UniProt P54764 20-986) (receptor)
